# Patent publication US20130065756A1, “SPIROHETEROCYCLIC DIONE DERIVATIVES USED AS PESTICIDES” (SYNGENTA CROP PROTECTION LLC, priority 2009, published 2013)
# Some of these results come from one statement about several compounds together.
# System: Bemisia tabaci (tobacco white fly)
# Assay: Example B5: Bemisia tabaci, larvicide, contact/feeding
# Format: in vivo
# Settings: 200 ppm; sprayed bean plants with N-2 nymphs; three weeks
smiles,measurement,value
"CON1CCC2(CC1)C(=O)C(c1c(C)cc(C)cc1C)C(=O)N2N(C)C (centres unmarked) [A1, 1-Dimethylamino-8-methoxy-3-(2,4,6-trimethyl-phenyl)-1,8-diaza-spiro[4.5]decane-2,4-dione]","activity (efficacy from number of emerged adults, treated vs non treated)",over 80%
"CCOC(=O)OC1=C(c2c(C)cc(C)cc2C)C(=O)N(N(C)C)C12CCN(OC)CC2 [A2, Carbonic acid 1-dimethylamino-8-methoxy-2-oxo-3-(2,4,6-trimethyl-phenyl)-1,8-diaza-spiro[4.5]dec-3-en-4-yl ester ethyl ester]","activity (efficacy from number of emerged adults, treated vs non treated)",over 80%
